Measured values from patent US20100316688A1.
Results are given in words; binding and its absence hold for the method and conditions named. Some results given as binding are weak or reduced against the parent protein; the word gives no strength.

Chains of the proteins cited; added tags and fusions are not shown. Residues count along the entry.
UniProt P15941, residues 1110-1255: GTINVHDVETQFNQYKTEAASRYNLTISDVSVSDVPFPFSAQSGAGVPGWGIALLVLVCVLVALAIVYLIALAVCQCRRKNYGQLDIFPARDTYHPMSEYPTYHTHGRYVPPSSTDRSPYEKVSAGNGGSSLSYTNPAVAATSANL
UniProt P15531, residues 2-152: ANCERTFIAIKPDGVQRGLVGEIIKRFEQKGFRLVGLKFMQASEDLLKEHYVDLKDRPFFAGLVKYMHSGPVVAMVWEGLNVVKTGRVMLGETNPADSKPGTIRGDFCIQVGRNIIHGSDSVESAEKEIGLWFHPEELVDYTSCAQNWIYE

Target: MUC1* (clipped form of MUC1, N-terminus truncated so that the extracellular domain is essentially the PSMGFR) on human stem or progenitor cells (human) (UniProt P15941)
Experiment: immunocytochemistry co-localisation on H9 hESC colonies

binding: binds
Substance: NM23 (endogenous, on or in human embryonic stem cells) (from UniProt P15531 2-152) (ligand)
